One molecule from article doi:10.1101/2023.04.17.537183 can be followed below.

This assay concerns the target T1, DmMIC60 (Mitofilin/Dmel_CG6455) (D. melanogaster (endogenous in flies)) (UniProt P91928).
T1 sequence: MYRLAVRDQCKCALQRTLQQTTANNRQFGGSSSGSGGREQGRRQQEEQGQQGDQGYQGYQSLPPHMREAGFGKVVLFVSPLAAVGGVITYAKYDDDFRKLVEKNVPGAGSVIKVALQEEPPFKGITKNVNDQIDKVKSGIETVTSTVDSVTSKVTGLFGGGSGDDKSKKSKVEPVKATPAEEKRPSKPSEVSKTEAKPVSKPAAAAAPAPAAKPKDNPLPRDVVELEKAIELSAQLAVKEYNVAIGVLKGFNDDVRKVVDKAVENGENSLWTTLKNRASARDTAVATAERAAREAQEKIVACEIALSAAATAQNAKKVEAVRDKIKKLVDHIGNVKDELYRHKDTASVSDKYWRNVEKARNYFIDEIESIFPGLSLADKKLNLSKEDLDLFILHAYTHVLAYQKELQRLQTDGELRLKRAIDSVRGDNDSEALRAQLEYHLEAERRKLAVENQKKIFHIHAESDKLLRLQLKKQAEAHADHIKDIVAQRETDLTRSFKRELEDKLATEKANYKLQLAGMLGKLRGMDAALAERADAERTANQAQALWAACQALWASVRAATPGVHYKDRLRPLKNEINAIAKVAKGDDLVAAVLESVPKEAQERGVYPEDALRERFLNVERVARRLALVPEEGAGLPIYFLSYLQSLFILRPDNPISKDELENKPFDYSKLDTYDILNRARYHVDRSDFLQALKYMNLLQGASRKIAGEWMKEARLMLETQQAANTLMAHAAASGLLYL
The assay is described as follows: co-IP.

No constants are given. Whether binding was seen depends on the method and setting. Binding seen in cells or lysates may run through a third protein. Some results given as binding are weak or reduced against the parent protein; the word gives no strength.

B1: DmMIC13 (QIL1/Dmel_CG760) (protein, UniProt Q9VVH3 1-122)
chain: MVLGFLVRGGLVAATVYYTQKVGIWGDSDQTDKLYNDIKSELRPHVQKLEKQLPFEVPQLPKTGEMRFLAKHYYNEGVKNTFRFIHMLPCYAGRGLKKVKDTFQDFAQSPAIAGGAESSPPK
On to B1, for which the binding result is reported as “binds”.
